# In PubChem BioAssay AID540276 (National Center for Advancing Translational Sciences (NCATS), 2011):
# Several values for one entry are separate records, joined by “and”; a condition that tells them apart may be missing. Equal values may be shown once. Screen size: about 300,000 compounds; about 5,400 (1.8%) were called active. The inconclusive results got no clear call from the source; some entries with a clear call stand among them for comparison. Calls follow the shape of the full dose curve; tested in HEK293 cells. Potencies beside an inconclusive call are fits to weak or partial responses and may not hold up.
# Experiment: qHTS for inhibitors of binding or entry into cells for Marburg Virus
# Details: Marburg virus pseudotyped entry inhibition, cell reporter; activity change, negative = inhibition: at 37.8 µM (top of the series) unless noted
# % is scaled to controls: 0 for no effect and ±100 for the full control effect; potency is read from the fitted curve at half-maximal effect.
Structure (SMILES),Potency,"activity change, negative = inhibition"
Cc1cc(N2CCCCC2)n2ncc(-c3ccc(Cl)cc3)c2n1,"inconclusive: 16.4 µM [activator, single point]",–
CCCCCNC1=CC(=O)CC(c2ccccc2)C1 (stereo not given),–,inactive: -21.8%
Cc1cc(NC(=O)CCN2CCN(CCO)CC2)ccc1Br,–,inactive: -4% [at 46.1 µM]
CC1=CC=CC2=N/C(=N\S(=O)(=O)c3ccc(F)cc3F)c3ccccc3CN12,"inconclusive: 20 µM [inhibitor, partial curve, poor fit]",–
CCN(CC)S(=O)(=O)c1ccc(NC(=O)c2cc(-c3cccs3)nc3ccccc23)cc1,–,inactive: -26.5%
CC(=O)Nc1ccc(Nc2nc(C)c([N+](=O)[O-])c(N(C)c3ccccc3)n2)cc1,–,inactive: -16.1%
Cc1cc([N+](=O)[O-])cc(/C=N\NC(=O)C2COc3ccccc3O2)c1O (stereo not given),"inconclusive: 8.91 µM [inhibitor, single point]",–
Cc1cc(/C=C(\C#N)C(=O)NC2CCCCCC2)c(C)[nH]1,"inconclusive: 2.31 µM [activator, single point]",–
CC(C)(C)c1ccc(OCCNC(=S)Nc2ccccc2)cc1,"inconclusive: 35.5 µM [inhibitor, single point]",–
Clc1ccc(C(c2nnnn2C2CCCC2)N2CCN(c3nc4ccccc4s3)CC2)cc1 (stereo not given),"inconclusive: 35.5 µM [inhibitor, single point]",–
O=C(NNC1=NS(=O)(=O)c2ccccc21)c1ccccc1Cl,"inconclusive: 7.94 µM [inhibitor, partial curve, poor fit]",–
CCOc1ccc(N(C(C)C(=O)N2CCCC2)S(C)(=O)=O)cc1 (stereo not given),"inconclusive: 1 µM [inhibitor, single point]",–
COCCCn1c(SCC(=O)NC(C)(C)C)nnc1-c1ccccc1,"inconclusive: 0.447 µM [inhibitor, partial curve, poor fit]",–
Cc1ccc(-c2csc3ncn(CC#N)c(=O)c23)cc1C,"inconclusive: 20 µM [inhibitor, single point]",–
Cc1cc(C#N)c(C)n1-c1cc(S(=O)(=O)N2CCOCC2)ccc1N1CCCC1,"inconclusive: 2.82 µM [inhibitor, partial curve, poor fit]",–
CNS(=O)(=O)c1cc(Cl)ccc1Sc1ccccc1C(=O)O,"inconclusive: 1.26 µM [inhibitor, single point]",–
COc1ccc(C2c3ccc(O)cc3Oc3ncn4nc(-c5ccncc5)nc4c32)cc1OC (stereo not given),"inconclusive: 10 µM [inhibitor, partial curve, poor fit]",–
COc1ccc2c(c1)CO[C@H]([C@H](O)COC(C)=O)[C@H]2C=Cc1ccccc1,–,inactive: -2.09% [at 14.2 µM]
COc1cc(/C=C2\SC(=Nc3ccccc3OC)NC2=O)ccc1O,"inconclusive: 7.94 µM [inhibitor, partial curve]",–
CCOC(=O)Nc1nc(-c2ccc(F)cc2F)cs1,–,inactive: 11.4%
O=C(NC1CCCCC1)c1cccnc1C(=O)O,–,inactive: -2.29%
CC(Nc1ccccc1)c1ccncc1 (stereo not given),–,inactive: 5.3% [at 46.1 µM]
O=C(O)c1ccc(-n2c(=O)c3ccccc3c3ccccc3c2=O)cc1,–,inactive: -4.33% [at 46.1 µM]
O=C(O)CN1C(=O)/C(=C\c2ccccc2OCc2ccc(Cl)cc2Cl)SC1=S,–,inactive: -15.4% [at 46.1 µM]

Structure (SMILES),Potency,"activity change, negative = inhibition"
O=P(Oc1ccccc1)(Oc1ccccc1)C(Nc1ccccc1)c1ccccc1 (stereo not given),"inconclusive: 12.6 µM [inhibitor, single point]",–
CC(C)(C)c1ccc(Cn2nnc3c(=O)[nH]c(C4CCN(C(=O)c5ccco5)CC4)nc32)cc1,"inconclusive: 25.1 µM [inhibitor, single point]",–
O=C(Nc1ccccc1Cl)c1cccc(COc2cc(Cl)ccc2Cl)c1,–,inactive: -5.33%
CCC(c1nnc(SCc2nc3ccccc3s2)n1Cc1ccccc1)N(C)C (stereo not given),–,inactive: -11.2%
COc1cc(S(=O)(=O)n2c(C)nc3ccccc32)ccc1F,"inconclusive: 20 µM [inhibitor, single point]",–
Cn1c(=O)n(C)c2cc(NS(=O)(=O)c3ccc(Cl)cc3)c(NCc3ccccc3)cc21,"inconclusive: 7.08 µM [activator, partial curve]",–
COc1ccc2c(c1)nc(SCC(O)c1ccccc1)n2C (stereo not given),"inconclusive: 1.12 µM [inhibitor, partial curve, poor fit]",–
Nc1scc2c(C(=O)N/N=C/c3ccc(Cl)cc3)nn(-c3ccccc3)c(=O)c12,"inconclusive: 0.092 µM [inhibitor, full curve, poor fit]",–
Fc1ccc2nc(-c3ccccc3)nc(SCc3nnc(-c4ccccc4)o3)c2c1,"inconclusive: 9.2 µM [inhibitor, partial curve, poor fit]",–
CC(C)(C)c1ccc(S(=O)(=O)NCC(=O)Nc2ccc(-c3nc4ccccc4s3)cc2)cc1,"inconclusive: 0.562 µM [activator, full curve, poor fit]",–
Cc1ccc(OCC(O)Cn2c3ccccc3c3ccccc32)cc1 (stereo not given),–,inactive: -55.5%
Cc1cc(N)n(-c2ncnc3scc(-c4ccccc4)c23)n1,"inconclusive: 3.16 µM [activator, single point]",–
Cn1c(=NC(=O)c2ccccc2[N+](=O)[O-])sc2cc(S(C)(=O)=O)ccc21,"inconclusive: 5.8 µM [inhibitor, single point]",–
CN1C(=O)C(c2nnc(Nc3cccc4ccccc34)s2)C2CC1(C)Oc1ccccc12 (stereo not given),"inactive and inconclusive: 15.8 µM [inhibitor, single point]",–
CN1C2C(Br)CCCCN2c2ccc(F)cc2S1(=O)=O (stereo not given),"inconclusive: 12.6 µM [activator, single point]",–
CCn1c(CC(=O)Nc2ccc(F)cc2)nnc1SCC(=O)Nc1nncs1,–,inactive: 3.52% [at 46.1 µM]
Cc1cc2ccccn2c1C(=O)c1ccccc1F,"inconclusive: 35.5 µM [inhibitor, single point]",–
NC(=O)COc1ccc(-c2noc(COc3ccc(Cl)cc3)n2)cc1,–,inactive: -0.663% [at 46.1 µM]
CCCn1c(NC(=O)c2ccc([N+](=O)[O-])o2)nc2ccccc21,"inconclusive: 35.5 µM [inhibitor, single point]",–
CCOc1cc(C(=O)Nc2cccc3ncccc23)cc(OCC)c1OCC,"inconclusive: 0.116 µM [inhibitor, full curve, poor fit]",–
Cc1cc(NC(=O)c2ccccc2F)nc2c1c(=O)oc1ccccc12,"inconclusive: 1.41 µM [inhibitor, partial curve, poor fit]",–
NS(=O)(=O)c1ccc(NCc2ccccc2OCc2ccc(F)cc2)cc1,"inconclusive: 10 µM [inhibitor, partial curve, poor fit]",–
Cc1ccc(OCc2nnc(SCC(=O)NC3CCCCC3)n2C)cc1,"inconclusive: 11.2 µM [activator, partial curve, poor fit]",–
O=C(O)C12C[C@H]3C[C@@H](C1)CC(n1ncc(N4CCN(c5ccccc5)CC4)c(Cl)c1=O)(C3)C2,–,inactive: 0.476%

Structure (SMILES),Potency,"activity change, negative = inhibition"
COc1ccc(CC(CC(=O)O)C(=O)NCc2ccccc2)cc1 (stereo not given),"inconclusive: 35.5 µM [activator, single point]",–
O=C(NC1CCCC1)c1ccc2c(c1)N(Cc1c(F)cccc1Cl)C(=O)c1ccccc1S2,"inconclusive: 0.794 µM [inhibitor, full curve, poor fit]",–
Cc1ccc(C)c(NC(=O)CN(C)C(=O)c2ccc3ncsc3c2)c1,"inconclusive: 14.1 µM [activator, partial curve, poor fit]",–
O=S(=O)(NCCc1ccccc1F)c1cccc(S(=O)(=O)N2CCOCC2)c1,–,inactive: 0.716%
Cn1cnnc1SCC(=O)NCCC1=CCCCC1,"inconclusive: 15.8 µM [activator, partial curve]",–
N#Cc1ccc(OCC(=O)NCCc2ccc(S(N)(=O)=O)cc2)cc1,–,inactive: -2.14%
O=C(N/N=C/c1cc([N+](=O)[O-])ccc1O)c1cccc(N2CCCC2=O)c1,"inconclusive: 11.2 µM [inhibitor, partial curve, poor fit]",–
CCN1C(=O)/C(=C/c2ccc(N3CCCC3)cc2)NC1=S,"inconclusive: 25.1 µM [inhibitor, single point]",–
O=C(CNc1ccccc1C(=O)O)c1ccccc1,–,inactive: -6.69%
COCCN(C(=O)Nc1ccc(OC)cc1)c1nc2ccccc2s1,–,inactive: 16.8% [at 46.1 µM]
O=c1[nH]c(=S)[nH]c2sc3c(c12)CCCCCC3,"inconclusive: 22.4 µM [inhibitor, single point]",–
N#Cc1ccccc1S(=O)(=O)N1CCN(C(=O)C2CC(=O)N(c3ccc4c(c3)OCCO4)C2)CC1 (stereo not given),–,inactive: 0.585%
O=C(COC(=O)C1(c2ccccc2F)CCCC1)Nc1ncc(C(F)(F)F)cc1Cl,"inconclusive: 3.55 µM [activator, single point]",–
CCC(=O)Nc1sc(C(=O)OC)c(C)c1C(=O)OC,–,inactive: -0.959%
CCN(CC)S(=O)(=O)c1cc(C(=O)Oc2cccc(-c3cnc4ccccc4n3)c2)ccc1Br,–,inactive: -20.7%
CC(NC(=O)Nc1ccc(F)cc1F)c1ccc2c(c1)OCO2 (stereo not given),"inconclusive: 3.55 µM [inhibitor, single point]",–
OCC1(Cc2ccccc2)CCN(Cc2cc3ccccc3o2)CC1,"inconclusive: 10 µM [inhibitor, partial curve, poor fit]",–
Cc1ccc(/C(O)=C2/C(=O)C(=O)N(CCN3CCOCC3)C2c2ccccn2)cc1 (stereo not given),–,inactive: -1.13%
COc1ccccc1CNc1ccc(N2CCCCC2)cc1,active: 5.17 µM,–
COc1cc2c(cc1OC)C(c1ccc(-c3ccc(Cl)c(Cl)c3)o1)=NCC2,active: 5.8 µM,–
O=C(O)Cc1ccc(NC(=O)c2ccc(Cl)c(Cl)c2)cc1,"inconclusive: 22.4 µM [inhibitor, single point]",–
C/C(=N\Nc1cc(-c2ccccc2)nc(-c2ccc(Br)cc2)n1)c1cccc(N)c1,–,inactive: -7.16%

# Random excerpt: four entries already listed, in no set order.
Structure (SMILES),Potency,"activity change, negative = inhibition"
N#Cc1ccc(OCC(=O)NCCc2ccc(S(N)(=O)=O)cc2)cc1,–,inactive: -2.14%
Cc1ccc(C)c(NC(=O)CN(C)C(=O)c2ccc3ncsc3c2)c1,"inconclusive: 14.1 µM [activator, partial curve, poor fit]",–
COc1ccc(CC(CC(=O)O)C(=O)NCc2ccccc2)cc1 (stereo not given),"inconclusive: 35.5 µM [activator, single point]",–
COc1cc2c(cc1OC)C(c1ccc(-c3ccc(Cl)c(Cl)c3)o1)=NCC2,active: 5.8 µM,–
